Experimental data published in patent publication US20110245249A1, “Heterocyclically Substituted Anilinopyrimidines” (Bayer CropScience AG, priority 2008, published 2011).
Read-outs that look alike come from different tables or passages of the source. Some entries share one result that the patent states for a list of compounds.

How the values were obtained:
Botrytis cinerea = test: Botrytis test (bean)/protective; format: in vivo; details: protective, active compound concentration 100 ppm, evaluation 2 days after inoculation
Leptosphaeria nodorum = Leptosphaeria nodorum test (wheat)/protective; format: in vivo; details: protective, active compound concentration 500 ppm, evaluation 7-9 days after inoculation
Venturia inaequalis = test: Venturia test (apple)/protective; format: in vivo; details: protective, active compound concentration 100 ppm, evaluation 10 days after inoculation
Septoria tritici = Septoria tritici test (wheat)/protective; format: in vivo; details: protective, active compound concentration 500 ppm, evaluation 21 days after inoculation
Pyricularia oryzae = format: in vivo
Sphaerotheca fuliginea = test: Sphaerotheca test (cucumber)/protective; format: in vivo; details: protective, active compound concentration 500 ppm, evaluation 7 days after inoculation
[1] = tested on: Production of DON/acetyl-DON by Fusarium graminearum; format: cell-based; details: at 50 μM, 7 days at 28° C.
Rhizoctonia solani = test: Rhizoctonia test (rice)/protective; format: in vivo; details: protective, active compound concentration 250 ppm, evaluation 4 days after inoculation
Gibberella zeae = details: in vivo
[2] = rice, protective, active compound concentration 250 ppm, evaluation 5 days after inoculation

Compound | efficacy (Botrytis cinerea) [%] | efficacy (Leptosphaeria nodorum) [%] | efficacy (Venturia inaequalis) [%] | efficacy (Septoria tritici) [%] | efficacy (Pyricularia oryzae; [2]) [%] | efficacy (Sphaerotheca fuliginea) [%] | activity in the inhibition of DON/AcDON [1] [%] | efficacy (Pyricularia oryzae; in vivo) [%] | efficacy (Rhizoctonia solani) [%] | efficacy (Gibberella zeae) [%]
CC1(C)CCOC(c2cccc(Nc3ncc(Cl)c(NC4CC4)n3)c2)O1 (stereo not shown) [Example 100] | ≥ 70 | ≥ 70 | ≥ 70 | ≥ 70 | – | – | – | – | – | –
CC1(c2ccc(Nc3ncc(Cl)c(NC4CC4)n3)cc2)OCCO1 [Example 27, 5-Chloro-N^4-cyclopropyl-N^2-[4-(2-methyl-1,3-dioxolan-2-yl)phenyl]pyrimidine-2,4-diamine] | – | – | – | – | ≥ 80 | – | – | – | – | –
Clc1cnc(Nc2cccc(C3OCCO3)c2)nc1NC1CC1 [Example 1, 5-Chloro-N^4-cyclopropyl-N^2-[3-(1,3-dioxolan-2-yl)phenyl]pyrimidine-2,4-diamine] | – | – | – | – | ≥ 80 | – | – | – | – | –
CC1COC(c2cccc(Nc3ncc(Cl)c(NC4CC4)n3)c2)OC1 (stereo not shown) [Example 101] | ≥ 70 | ≥ 70 | – | ≥ 70 | – | – | – | – | – | –
CC1COC(c2cccc(Nc3ncc(Cl)c(NC4CC4)n3)c2)O1 (stereo not shown) [Example 8] | ≥ 70 | ≥ 70 | ≥ 70 | ≥ 70 | – | ≥ 70 | – | – | – | –
OCC1CSC(c2cccc(Nc3ncc(Cl)c(NC4CCC4)n3)c2)S1 (stereo not shown) [Example 162] | ≥ 70 | ≥ 70 | ≥ 70 | ≥ 70 | – | ≥ 70 | – | – | – | –
CC(C)(C)C1COC(c2cccc(Nc3ncc(Cl)c(NC4CC4)n3)c2)O1 (stereo not shown) [Example 30] | – | ≥ 70 | – | – | – | ≥ 70 | > 80 | – | – | –
COC(OC)c1cccc(Nc2ncc(Cl)c(NC3CC3)n2)c1 [Example 63] | ≥ 70 | ≥ 70 | ≥ 70 | – | – | ≥ 70 | – | – | – | –
CC1CC(C)OC(c2cccc(Nc3ncc(Cl)c(NC4CC4)n3)c2)O1 (stereo not shown) [Example 9] | ≥ 70 | ≥ 70 | ≥ 70 | ≥ 70 | – | ≥ 70 | > 80 | – | – | –
Clc1cnc(Nc2cccc(C3OCC(CN4CCCC4)O3)c2)nc1NC1CC1 (stereo not shown) [Example 43] | – | ≥ 70 | – | – | – | – | – | ≥ 80 | – | –
CN(c1nc(Nc2cccc(C3OCCO3)c2)ncc1Cl)C1CC1 [Example 23] | – | ≥ 70 | ≥ 70 | ≥ 70 | – | ≥ 70 | > 80 | – | – | –
CC1(c2cccc(Nc3ncc(C(F)(F)F)c(NC4CC4)n3)c2)OCCO1 [Example 11] | ≥ 70 | ≥ 70 | ≥ 70 | ≥ 70 | – | ≥ 70 | – | ≥ 80 | ≥ 80 | –
CCC1COC(c2cccc(Nc3ncc(Cl)c(NC4CC4)n3)c2)O1 (stereo not shown) [Example 7] | ≥ 70 | ≥ 70 | ≥ 70 | ≥ 70 | – | ≥ 70 | – | – | – | –
Clc1cnc(Nc2cccc(C3OCCO3)c2)nc1NCC1CC1 [Example 18] | ≥ 70 | ≥ 70 | ≥ 70 | ≥ 70 | – | ≥ 70 | > 80 | – | – | –
OCC1CSC(c2cccc(Nc3ncc(Cl)c(NC4CC4)n3)c2)S1 (stereo not shown) [Example 160] | ≥ 70 | ≥ 70 | ≥ 70 | ≥ 70 | – | ≥ 70 | – | – | – | –
CCOC(OCC)c1cccc(Nc2ncc(Cl)c(NC3CC3)n2)c1 [Example 64] | ≥ 70 | ≥ 70 | ≥ 70 | – | – | ≥ 70 | – | – | – | –
C=C1COC(c2cccc(Nc3ncc(Cl)c(NC4CC4)n3)c2)OC1 [Example 92] | – | ≥ 70 | – | ≥ 70 | – | ≥ 70 | – | ≥ 80 | – | ≥ 80

Compound | efficacy (Botrytis cinerea) [%] | efficacy (Leptosphaeria nodorum) [%] | efficacy (Venturia inaequalis) [%] | efficacy (Septoria tritici) [%] | efficacy (Pyricularia oryzae; [2]) [%] | efficacy (Sphaerotheca fuliginea) [%] | activity in the inhibition of DON/AcDON [1] [%] | efficacy (Pyricularia oryzae; in vivo) [%] | efficacy (Rhizoctonia solani) [%] | efficacy (Gibberella zeae) [%]
CC1OC(c2cccc(Nc3ncc(Cl)c(NC4CC4)n3)c2)OC1C (stereo not shown) [Example 3] | ≥ 70 | ≥ 70 | – | – | – | ≥ 70 | – | – | – | –
C=CCOCC1COC(c2cccc(Nc3ncc(Cl)c(NC4CC4)n3)c2)O1 (stereo not shown) [Example 34] | – | ≥ 70 | – | ≥ 70 | – | – | – | ≥ 80 | – | –
CC1(c2cccc(Nc3ncc(Cl)c(NC4CC4)n3)c2)OCCO1 [Example 12, 5-Chloro-N^4-cyclopropyl-N^2-[3-(2-methyl-1,3-dioxolan-2-yl)phenyl]pyrimidine-2,4-diamine] | – | – | – | – | ≥ 80 | – | – | – | – | –
FC(F)(F)c1cnc(Nc2cccc(C3OCCO3)c2)nc1NC1CCC1 [Example 22] | ≥ 70 | ≥ 70 | ≥ 70 | ≥ 70 | – | ≥ 70 | > 80 | – | – | –
COCC1COC(c2cccc(Nc3ncc(Cl)c(NC4CC4)n3)c2)O1 (stereo not shown) [Example 28] | – | ≥ 70 | – | ≥ 70 | – | ≥ 70 | – | ≥ 80 | ≥ 80 | –
C=C1COC(c2cccc(Nc3ncc(Br)c(NC4CCC4)n3)c2)OC1 [Example 82] | – | ≥ 70 | – | – | – | – | – | ≥ 80 | ≥ 80 | –
COCC1COC(C)(c2cccc(Nc3ncc(Cl)c(NC4CC4)n3)c2)O1 (stereo not shown) [Example 70] | ≥ 70 | ≥ 70 | ≥ 70 | ≥ 70 | – | ≥ 70 | – | – | – | –
Fc1ccc(Nc2ncc(Cl)c(NC3CC3)n2)cc1C1OCCO1 [Example 128] | ≥ 70 | ≥ 70 | ≥ 70 | ≥ 70 | – | ≥ 70 | – | – | – | –
Clc1cnc(Nc2cccc(C3OCC(CN4CCOCC4)O3)c2)nc1NC1CC1 (stereo not shown) [Example 41] | – | ≥ 70 | – | – | – | – | – | ≥ 80 | ≥ 80 | –
CC1CC1Nc1nc(Nc2cccc(C3(C)OCCO3)c2)ncc1Cl (stereo not shown) [Example 76] | ≥ 70 | ≥ 70 | – | ≥ 70 | – | ≥ 70 | – | – | – | –
Clc1cnc(Nc2cccc(C3OCCCO3)c2)nc1NC1CC1 [Example 5, 5-Chloro-N^4-cyclopropyl-N^2-[3-(1,3-dioxan-2-yl)phenyl]pyrimidine-2,4-diamine] | – | – | – | – | ≥ 80 | – | – | – | – | –
ClCC1COC(c2cccc(Nc3ncc(Cl)c(NC4CC4)n3)c2)O1 (stereo not shown) [Example 33] | – | ≥ 70 | – | – | – | – | – | ≥ 80 | ≥ 80 | –
Clc1cnc(Nc2cccc(C3OCCS3)c2)nc1NC1CC1 (stereo not shown) [Example 46, 5-Chloro-N^4-cyclopropyl-N^2-[3-(1,3-oxathiolan-2-yl)phenyl]pyrimidine-2,4-diamine] | – | – | – | – | ≥ 80 | – | – | – | – | –
Fc1ccc(Nc2ncc(Br)c(NC3CC3)n2)cc1C1OCCCO1 [Example 145] | ≥ 70 | ≥ 70 | ≥ 70 | – | – | – | – | – | – | –
Clc1cnc(Nc2cccc(C3OC4COCC4O3)c2)nc1NC1CCC1 (stereo not shown) [Example 118] | ≥ 70 | ≥ 70 | ≥ 70 | ≥ 70 | – | ≥ 70 | – | – | – | –
C=CCOCC1COC(c2cccc(Nc3ncc(Cl)c(NC4CCC4)n3)c2)O1 (stereo not shown) [Example 116] | ≥ 70 | ≥ 70 | ≥ 70 | ≥ 70 | – | ≥ 70 | – | – | – | –
Brc1cnc(Nc2cccc(C3OCCCO3)c2)nc1NC1CCC1 [Example 151] | ≥ 70 | ≥ 70 | ≥ 70 | – | – | – | – | – | – | –
